Results as given in the supplement of paper PMC10849652.
Some of the results follow.

By UniProt entry, the sequences of proteins in these tests, tags left out. Where a name states a change or a piece, a line headed by the entry shows the natural chain unless it says otherwise.
UniProt Q9H7Z6: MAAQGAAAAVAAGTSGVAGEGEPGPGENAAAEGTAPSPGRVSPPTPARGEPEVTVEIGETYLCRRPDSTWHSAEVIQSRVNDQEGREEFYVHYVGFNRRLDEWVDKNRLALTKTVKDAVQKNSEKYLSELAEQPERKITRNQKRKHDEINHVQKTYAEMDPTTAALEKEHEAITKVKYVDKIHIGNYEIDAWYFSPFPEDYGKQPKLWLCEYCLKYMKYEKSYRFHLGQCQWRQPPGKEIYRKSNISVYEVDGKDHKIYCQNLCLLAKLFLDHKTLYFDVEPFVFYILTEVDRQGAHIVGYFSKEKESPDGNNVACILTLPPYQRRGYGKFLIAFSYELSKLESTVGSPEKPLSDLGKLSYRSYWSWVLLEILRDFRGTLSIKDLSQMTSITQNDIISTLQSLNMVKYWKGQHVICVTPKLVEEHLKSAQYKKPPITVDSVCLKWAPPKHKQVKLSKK
UniProt O00505, whole entry, looked up: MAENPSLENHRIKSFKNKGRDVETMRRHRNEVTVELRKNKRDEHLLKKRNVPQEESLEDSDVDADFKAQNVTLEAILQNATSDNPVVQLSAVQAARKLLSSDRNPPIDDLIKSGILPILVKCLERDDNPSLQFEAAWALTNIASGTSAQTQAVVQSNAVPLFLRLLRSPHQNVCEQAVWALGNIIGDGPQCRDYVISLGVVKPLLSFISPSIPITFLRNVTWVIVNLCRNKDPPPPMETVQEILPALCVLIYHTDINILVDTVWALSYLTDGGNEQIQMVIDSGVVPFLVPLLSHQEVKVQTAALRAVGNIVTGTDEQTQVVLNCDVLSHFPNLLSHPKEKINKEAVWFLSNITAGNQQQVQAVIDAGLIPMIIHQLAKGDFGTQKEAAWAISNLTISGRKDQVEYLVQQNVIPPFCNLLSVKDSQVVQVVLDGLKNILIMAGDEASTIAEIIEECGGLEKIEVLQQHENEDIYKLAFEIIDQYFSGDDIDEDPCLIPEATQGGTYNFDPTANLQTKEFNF
UniProt O14686, whole entry, looked up: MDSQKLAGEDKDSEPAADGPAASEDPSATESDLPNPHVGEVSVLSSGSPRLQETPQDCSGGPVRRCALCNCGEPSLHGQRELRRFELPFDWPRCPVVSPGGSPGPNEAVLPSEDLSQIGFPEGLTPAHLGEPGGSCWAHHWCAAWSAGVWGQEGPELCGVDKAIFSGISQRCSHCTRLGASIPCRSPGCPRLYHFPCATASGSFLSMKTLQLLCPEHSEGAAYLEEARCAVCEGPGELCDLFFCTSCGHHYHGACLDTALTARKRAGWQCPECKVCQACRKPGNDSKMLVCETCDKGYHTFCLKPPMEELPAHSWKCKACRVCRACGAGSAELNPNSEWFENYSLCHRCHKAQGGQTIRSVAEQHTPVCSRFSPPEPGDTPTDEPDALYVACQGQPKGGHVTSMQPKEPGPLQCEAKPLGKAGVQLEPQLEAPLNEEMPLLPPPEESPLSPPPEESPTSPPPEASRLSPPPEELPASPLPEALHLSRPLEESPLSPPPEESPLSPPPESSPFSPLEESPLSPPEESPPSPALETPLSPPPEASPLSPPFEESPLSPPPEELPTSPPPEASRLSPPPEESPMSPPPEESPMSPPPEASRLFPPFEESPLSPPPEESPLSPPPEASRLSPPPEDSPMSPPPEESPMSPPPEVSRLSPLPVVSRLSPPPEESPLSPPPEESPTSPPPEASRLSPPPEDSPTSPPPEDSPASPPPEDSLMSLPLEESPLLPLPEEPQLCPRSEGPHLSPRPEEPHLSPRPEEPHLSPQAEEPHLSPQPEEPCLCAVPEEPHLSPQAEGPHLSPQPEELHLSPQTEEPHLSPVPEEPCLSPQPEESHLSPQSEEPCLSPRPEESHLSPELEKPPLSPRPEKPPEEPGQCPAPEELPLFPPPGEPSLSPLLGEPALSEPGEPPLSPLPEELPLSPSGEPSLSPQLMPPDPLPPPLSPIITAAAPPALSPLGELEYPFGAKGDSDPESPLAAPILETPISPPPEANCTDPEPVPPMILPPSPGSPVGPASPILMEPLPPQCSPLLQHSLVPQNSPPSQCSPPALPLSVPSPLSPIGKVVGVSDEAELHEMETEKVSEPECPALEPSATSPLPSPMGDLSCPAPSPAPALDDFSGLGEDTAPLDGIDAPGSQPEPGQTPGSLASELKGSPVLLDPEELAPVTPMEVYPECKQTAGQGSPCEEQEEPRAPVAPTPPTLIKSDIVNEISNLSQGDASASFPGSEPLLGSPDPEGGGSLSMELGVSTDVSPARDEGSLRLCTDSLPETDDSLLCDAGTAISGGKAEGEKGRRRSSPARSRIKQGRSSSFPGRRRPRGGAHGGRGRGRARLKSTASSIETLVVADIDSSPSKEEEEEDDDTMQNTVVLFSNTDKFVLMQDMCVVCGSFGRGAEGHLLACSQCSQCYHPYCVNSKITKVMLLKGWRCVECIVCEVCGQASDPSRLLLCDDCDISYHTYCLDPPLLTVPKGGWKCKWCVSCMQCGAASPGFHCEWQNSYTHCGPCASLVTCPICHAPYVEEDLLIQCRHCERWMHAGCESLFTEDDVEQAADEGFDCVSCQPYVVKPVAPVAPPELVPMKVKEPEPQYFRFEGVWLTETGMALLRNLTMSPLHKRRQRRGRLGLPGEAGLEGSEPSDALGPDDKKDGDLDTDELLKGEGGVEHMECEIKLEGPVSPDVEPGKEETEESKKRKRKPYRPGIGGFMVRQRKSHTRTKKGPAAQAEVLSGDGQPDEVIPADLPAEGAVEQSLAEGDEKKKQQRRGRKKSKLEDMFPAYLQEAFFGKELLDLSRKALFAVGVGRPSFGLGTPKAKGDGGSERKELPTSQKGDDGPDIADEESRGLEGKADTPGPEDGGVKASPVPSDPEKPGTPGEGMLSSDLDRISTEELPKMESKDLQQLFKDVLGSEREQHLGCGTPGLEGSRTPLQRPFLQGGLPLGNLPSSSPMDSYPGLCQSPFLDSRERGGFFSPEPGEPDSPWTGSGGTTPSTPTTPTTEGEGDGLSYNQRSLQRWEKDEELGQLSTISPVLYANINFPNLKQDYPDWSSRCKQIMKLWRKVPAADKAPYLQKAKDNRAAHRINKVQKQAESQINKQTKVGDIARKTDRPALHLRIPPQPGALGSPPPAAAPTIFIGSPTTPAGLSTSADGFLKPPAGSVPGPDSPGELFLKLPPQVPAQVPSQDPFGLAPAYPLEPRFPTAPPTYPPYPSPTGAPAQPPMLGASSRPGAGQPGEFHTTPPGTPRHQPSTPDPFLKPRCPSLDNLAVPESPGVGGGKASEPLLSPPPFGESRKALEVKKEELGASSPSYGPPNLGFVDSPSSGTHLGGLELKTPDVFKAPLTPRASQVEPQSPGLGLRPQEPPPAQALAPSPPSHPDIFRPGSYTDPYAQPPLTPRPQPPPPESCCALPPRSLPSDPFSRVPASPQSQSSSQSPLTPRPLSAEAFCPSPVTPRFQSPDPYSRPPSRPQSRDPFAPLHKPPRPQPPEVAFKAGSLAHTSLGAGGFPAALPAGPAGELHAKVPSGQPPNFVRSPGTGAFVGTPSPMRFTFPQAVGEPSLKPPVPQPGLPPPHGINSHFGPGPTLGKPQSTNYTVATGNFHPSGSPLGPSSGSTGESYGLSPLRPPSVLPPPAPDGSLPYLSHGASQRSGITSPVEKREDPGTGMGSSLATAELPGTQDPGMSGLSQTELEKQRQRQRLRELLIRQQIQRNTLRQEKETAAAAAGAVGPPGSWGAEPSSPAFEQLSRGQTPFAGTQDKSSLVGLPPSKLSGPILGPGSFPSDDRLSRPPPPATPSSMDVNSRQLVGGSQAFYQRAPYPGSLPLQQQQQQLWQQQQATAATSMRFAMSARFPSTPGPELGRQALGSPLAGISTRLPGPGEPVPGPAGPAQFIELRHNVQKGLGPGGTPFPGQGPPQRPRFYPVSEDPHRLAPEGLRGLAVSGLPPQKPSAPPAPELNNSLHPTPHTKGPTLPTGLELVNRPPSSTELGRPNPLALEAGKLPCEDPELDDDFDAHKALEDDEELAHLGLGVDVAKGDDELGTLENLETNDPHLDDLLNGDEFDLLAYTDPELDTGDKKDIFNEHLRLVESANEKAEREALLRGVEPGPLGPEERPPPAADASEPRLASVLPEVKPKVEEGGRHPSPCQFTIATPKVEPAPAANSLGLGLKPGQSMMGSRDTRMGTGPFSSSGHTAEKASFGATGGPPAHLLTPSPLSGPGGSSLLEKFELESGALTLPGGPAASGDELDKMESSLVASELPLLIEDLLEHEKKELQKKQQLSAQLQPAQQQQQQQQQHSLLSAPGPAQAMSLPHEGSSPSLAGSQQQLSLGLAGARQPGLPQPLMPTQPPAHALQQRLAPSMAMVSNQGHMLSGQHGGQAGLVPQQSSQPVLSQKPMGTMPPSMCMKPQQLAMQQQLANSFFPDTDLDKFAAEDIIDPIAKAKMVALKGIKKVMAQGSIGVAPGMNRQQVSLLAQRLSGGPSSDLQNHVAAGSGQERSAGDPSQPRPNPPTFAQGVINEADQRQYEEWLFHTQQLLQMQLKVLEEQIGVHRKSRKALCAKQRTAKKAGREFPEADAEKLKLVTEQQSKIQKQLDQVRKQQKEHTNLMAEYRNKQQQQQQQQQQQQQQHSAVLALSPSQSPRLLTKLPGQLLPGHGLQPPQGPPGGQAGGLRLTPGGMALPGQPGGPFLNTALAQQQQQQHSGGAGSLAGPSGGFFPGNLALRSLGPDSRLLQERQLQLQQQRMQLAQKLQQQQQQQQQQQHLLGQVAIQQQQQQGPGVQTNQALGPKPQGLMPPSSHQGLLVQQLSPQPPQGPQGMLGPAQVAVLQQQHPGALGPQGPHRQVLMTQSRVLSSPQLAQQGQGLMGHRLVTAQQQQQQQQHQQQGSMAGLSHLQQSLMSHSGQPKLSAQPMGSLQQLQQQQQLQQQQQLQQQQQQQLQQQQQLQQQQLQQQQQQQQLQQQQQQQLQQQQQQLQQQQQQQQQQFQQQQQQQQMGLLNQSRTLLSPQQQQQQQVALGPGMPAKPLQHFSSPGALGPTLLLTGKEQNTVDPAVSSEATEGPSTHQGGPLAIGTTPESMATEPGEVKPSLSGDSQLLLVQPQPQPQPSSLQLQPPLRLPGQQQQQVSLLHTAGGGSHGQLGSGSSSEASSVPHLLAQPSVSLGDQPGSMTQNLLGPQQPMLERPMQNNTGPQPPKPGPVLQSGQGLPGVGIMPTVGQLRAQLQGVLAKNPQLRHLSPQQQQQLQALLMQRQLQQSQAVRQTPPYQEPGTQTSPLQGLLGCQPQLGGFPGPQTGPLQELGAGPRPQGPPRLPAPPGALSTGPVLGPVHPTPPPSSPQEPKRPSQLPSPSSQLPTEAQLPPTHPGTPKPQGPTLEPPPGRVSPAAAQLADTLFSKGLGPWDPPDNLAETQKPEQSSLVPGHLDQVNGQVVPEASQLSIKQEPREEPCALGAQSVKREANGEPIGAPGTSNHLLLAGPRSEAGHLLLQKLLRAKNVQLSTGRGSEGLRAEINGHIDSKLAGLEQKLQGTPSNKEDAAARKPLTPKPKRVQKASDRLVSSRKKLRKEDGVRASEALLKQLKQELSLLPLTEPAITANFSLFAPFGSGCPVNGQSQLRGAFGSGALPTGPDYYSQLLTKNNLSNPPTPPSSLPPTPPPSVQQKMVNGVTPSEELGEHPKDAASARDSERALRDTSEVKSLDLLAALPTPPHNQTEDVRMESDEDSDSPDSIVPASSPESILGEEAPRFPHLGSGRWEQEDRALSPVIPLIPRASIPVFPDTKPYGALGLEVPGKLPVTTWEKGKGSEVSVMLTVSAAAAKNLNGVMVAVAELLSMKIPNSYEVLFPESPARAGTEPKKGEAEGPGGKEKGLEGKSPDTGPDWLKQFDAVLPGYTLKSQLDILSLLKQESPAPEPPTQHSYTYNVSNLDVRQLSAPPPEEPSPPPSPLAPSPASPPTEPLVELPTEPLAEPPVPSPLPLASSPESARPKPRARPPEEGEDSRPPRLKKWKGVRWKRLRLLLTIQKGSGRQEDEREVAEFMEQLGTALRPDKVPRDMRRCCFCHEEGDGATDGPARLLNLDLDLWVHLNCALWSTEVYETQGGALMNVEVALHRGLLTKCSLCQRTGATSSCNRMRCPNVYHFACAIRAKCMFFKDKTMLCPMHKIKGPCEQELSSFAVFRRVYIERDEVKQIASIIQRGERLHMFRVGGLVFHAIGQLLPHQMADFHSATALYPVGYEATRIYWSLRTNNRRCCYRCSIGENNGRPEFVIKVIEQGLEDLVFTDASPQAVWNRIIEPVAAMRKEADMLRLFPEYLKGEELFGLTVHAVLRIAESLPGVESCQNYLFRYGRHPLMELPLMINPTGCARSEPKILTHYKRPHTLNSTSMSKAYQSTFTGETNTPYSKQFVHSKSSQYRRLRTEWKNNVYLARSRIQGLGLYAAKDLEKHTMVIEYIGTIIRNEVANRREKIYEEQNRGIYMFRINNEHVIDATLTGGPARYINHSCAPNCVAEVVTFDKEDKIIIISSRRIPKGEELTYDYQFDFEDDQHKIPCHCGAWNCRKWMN

How the values were obtained:
Experiment in all cases: log2 fold change, soluble protein after heating vs DMSO (PISA); higher = thermal stabilisation; K562 cells, 10 uM, 30 min; active = over 0.2 and 3.5 SD of the protein, either way, in both replicates (recomputed)
[1] = compound: C1=CC=C(C=C1)[C@H](COC2=CC3=C(C=C2)NC(=O)N3)NC(=O)C4=CC=CN(C4=O)CC5=CC(=C(C=C5)F)F
Outline: (§1)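 K562 cells at 2×10^6 cells/mL were treated with 10 μM compound for 30 min. Aliquots were heated for 3 min across 48°C-58°C, pooled, and extracted in PBS with 0.5% NP-40 at 4°C; soluble protein was the supernatant after 21,000xg for 90 min. Soluble protein was quantified by TMTpro 16plex LC-MS/MS with channel sums equalised, and reported as log2 fold change in thermal stability against DMSO controls, with values from duplicates.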

[2] = compound: CC1=C(SC2=C1C(=N[C@H](C3=NN=C(N32)C)CC(=O)N)C4=CC=C(C=C4)Cl)C
Outline: as §1

[3] = compound: CC1=C2C(=CC=C1)N=C(N(C2=O)C3=CC=CC=C3C)CN4C=NC5=C(N=CN=C54)N
Outline: as §1

[4] = compound: Cc1sc2c(c1C)C(c1ccc(Cl)cc1)=N[C@@H](CC(=O)OC(C)(C)C)c1nnc(C)n1-2
Outline: as §1

[5] = compound: c1ccc([C@@H]2C[C@H]2NC2CCNCC2)cc1
Outline: as §1

Measured: log2 fold change

JMJD1C (UniProt Q15652)
inactive: [1] 0.007 | [2] 0.07 | [3] 0.112 | [4] -0.053 | [5] -0.069

KBTBD4 isoform 2 (UniProt Q9NVX7)
inactive: [1] 0.11 | [2] 0.091 | [3] 0.099 | [4] -0.045 | [5] 0.005

KCT2 (UniProt Q8NC54)
inactive: [1] 0.046 | [2] 0.024 | [3] -0.01 | [4] -0.014 | [5] 0.028

KAT8 isoform 2 (UniProt Q9H7Z6)
inactive: [1] -0.018 | [2] -0.012 | [3] -0.055 | [4] -0.015 | [5] 0.001

KCTD10 (UniProt Q9H3F6)
inactive: [1] -0.014 | [2] -0.009 | [3] 0.007 | [4] -0.01 | [5] 0.03

KHDC4 (UniProt Q7Z7F0)
inactive: [1] -0.063 | [2] 0.129 | [3] 0.007 | [4] -0.061 | [5] -0.064

KLC1 isoform 6 (UniProt Q07866)
inactive: [1] -0.027 | [2] 0.057 | [3] 0.036 | [4] 0.001 | [5] -0.024

KNG1 (UniProt P01042)
inactive: [1] -0.055 | [2] 0.018 | [3] 0.14 | [4] 0.016 | [5] -0.014

KPNA3 (UniProt O00505)
inactive: [1] 0 | [2] 0.01 | [3] 0.08 | [4] -0.032 | [5] 0.006

KBTBD2 (UniProt Q8IY47)
inactive: [1] 0 | [2] 0.12 | [3] 0.049 | [4] -0.023 | [5] -0.006

KCNH2 (UniProt Q12809)
inactive: [1] 0.072 | [2] 0.01 | [3] 0.034 | [4] 0.148 | [5] 0.029

KCTD2 (UniProt Q14681)
inactive: [1] 0.008 | [2] -0.01 | [3] 0.022 | [4] 0.195 | [5] 0.158

JAK3 (UniProt P52333)
inactive: [1] -0.011 | [2] 0.075 | [3] -0.027 | [4] 0.009 | [5] 0.032

KAZN isoform 3 (UniProt Q674X7)
inactive: [1] 0.02 | [2] 0.016 | [3] 0.083 | [4] 0.007 | [5] 0.058

KDM5C (UniProt P41229)
inactive: [1] -0.105 | [2] 0.061 | [3] 0.126 | [4] 0 | [5] 0.04

Random excerpt: 2 records from the list.
KNG1 (UniProt P01042)
inactive: [1] -0.055 | [2] 0.018 | [3] 0.14 | [4] 0.016 | [5] -0.014

KLC1 isoform 6 (UniProt Q07866)
inactive: [1] -0.027 | [2] 0.057 | [3] 0.036 | [4] 0.001 | [5] -0.024

Next results follow.

KMT2D isoform 3 (UniProt O14686)
inactive: [1] 0.019 | [2] 0.041 | [3] 0.069 | [4] -0.013 | [5] 0.044

KBTBD8 (UniProt Q8NFY9)
inactive: [1] -0.009 | [2] 0.078 | [3] 0.091 | [4] -0.089 | [5] -0.028

KIF2A isoform 4 (UniProt O00139)
inactive: [1] 0.044 | [2] -0.074 | [3] -0.027 | [4] 0.084 | [5] 0.007

KIF2C (UniProt Q99661)
inactive: [1] -0.062 | [2] -0.021 | [3] 0.094 | [4] 0.002 | [5] -0.029

KCTD5 (UniProt Q9NXV2)
inactive: [1] -0.033 | [2] 0.005 | [3] 0.065 | [4] -0.023 | [5] -0.018

KEL (UniProt P23276)
inactive: [1] -0.067 | [2] 0.003 | [3] 0.017 | [4] 0.019 | [5] 0.067

KLHL11 (UniProt Q9NVR0)
inactive: [1] -0.115 | [2] 0.101 | [3] 0.038 | [4] -0.101 | [5] -0.068

KIAA0100 (UniProt Q14667)
inactive: [1] -0.102 | [2] 0.072 | [3] -0.031 | [4] 0.036 | [5] 0.023

KDM2A (UniProt Q9Y2K7)
inactive: [1] -0.028 | [2] -0.015 | [3] -0.039 | [4] -0.059 | [5] -0.025
